According to PMC4741959:
No constants are given. Whether binding was seen depends on the method and setting. Binding seen in cells or lysates may run through a third protein. Some entries that bind do so weakly or less than the wild type.

Sequences of proteins named here, by UniProt entry; tags and fusion partners are left off.
UniProt P63279: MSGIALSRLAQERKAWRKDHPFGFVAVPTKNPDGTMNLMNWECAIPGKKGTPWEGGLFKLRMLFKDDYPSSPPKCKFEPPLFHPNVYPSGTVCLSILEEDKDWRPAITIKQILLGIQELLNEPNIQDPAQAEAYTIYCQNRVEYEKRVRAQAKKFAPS

Biological target: B-cell lymphoma 2 (Bcl-2) (human (endogenous in HepG2 and RKO)) (UniProt P10415)
Test: co-IP; total protein extracts of HepG2 and RKO cells transfected with scrambled siRNA or siUbc9 (20 nM, 48 hours); immunoprecipitation with specific antibodies, Western blotting; silencing of Ubc9 lowered the interaction

Substance: Ubiquitin-conjugating enzyme 9 (Ubc9) (from UniProt P63279 1-158)
- binding: binds
